Test system: focal middle cerebral arterial occlusion (MCAO) ischemia
Settings: laser-Doppler flowmetry; for reduction in cerebral blood flow upon induction of ischemia: sustained for 1 h during ischemia, same in control and treated animals

Structure (SMILES)	time for cerebral blood flow to return to baseline levels after cessation of ischemia [h]	reduction in cerebral blood flow upon induction of ischemia [%]
CC(C)C[C@@H](NC(=O)[C@H](Cc1ccccc1)NC(=O)CNC(=O)[C@@H](C)NC(=O)[C@@H](N)Cc1ccc(O)cc1)C(=O)O [DADLE, Tyr-D-Ala-Gly-Phe-D-Leu-enkephalin]	≤ 0.5	20
CC(C)[C@H](NC(=O)[C@H](CC(=O)O)NC(=O)[C@H](Cc1ccccc1)NC(=O)[C@@H](C)NC(=O)[C@@H](N)Cc1ccc(O)cc1)C(=O)N[C@H](C(=O)NCC(N)=O)C(C)C [deltorphin, Tyr-Ala-Phe-Asp-Val-Val-Gly-NH2]	≤ 0.5	25

From patent publication US6294519A, “Method for treating ischemia” (University of Kentucky Research Foundation, priority 2000, dated 2001)
